Data on one substance can be found in US20090117091A1.

Protein sequences, listed by entry. Tags and fused reporters are not part of them. Lines headed by an entry give the natural chain unless they say otherwise; changes in a name come on top. Residues count along the entry.
UniProt P11717: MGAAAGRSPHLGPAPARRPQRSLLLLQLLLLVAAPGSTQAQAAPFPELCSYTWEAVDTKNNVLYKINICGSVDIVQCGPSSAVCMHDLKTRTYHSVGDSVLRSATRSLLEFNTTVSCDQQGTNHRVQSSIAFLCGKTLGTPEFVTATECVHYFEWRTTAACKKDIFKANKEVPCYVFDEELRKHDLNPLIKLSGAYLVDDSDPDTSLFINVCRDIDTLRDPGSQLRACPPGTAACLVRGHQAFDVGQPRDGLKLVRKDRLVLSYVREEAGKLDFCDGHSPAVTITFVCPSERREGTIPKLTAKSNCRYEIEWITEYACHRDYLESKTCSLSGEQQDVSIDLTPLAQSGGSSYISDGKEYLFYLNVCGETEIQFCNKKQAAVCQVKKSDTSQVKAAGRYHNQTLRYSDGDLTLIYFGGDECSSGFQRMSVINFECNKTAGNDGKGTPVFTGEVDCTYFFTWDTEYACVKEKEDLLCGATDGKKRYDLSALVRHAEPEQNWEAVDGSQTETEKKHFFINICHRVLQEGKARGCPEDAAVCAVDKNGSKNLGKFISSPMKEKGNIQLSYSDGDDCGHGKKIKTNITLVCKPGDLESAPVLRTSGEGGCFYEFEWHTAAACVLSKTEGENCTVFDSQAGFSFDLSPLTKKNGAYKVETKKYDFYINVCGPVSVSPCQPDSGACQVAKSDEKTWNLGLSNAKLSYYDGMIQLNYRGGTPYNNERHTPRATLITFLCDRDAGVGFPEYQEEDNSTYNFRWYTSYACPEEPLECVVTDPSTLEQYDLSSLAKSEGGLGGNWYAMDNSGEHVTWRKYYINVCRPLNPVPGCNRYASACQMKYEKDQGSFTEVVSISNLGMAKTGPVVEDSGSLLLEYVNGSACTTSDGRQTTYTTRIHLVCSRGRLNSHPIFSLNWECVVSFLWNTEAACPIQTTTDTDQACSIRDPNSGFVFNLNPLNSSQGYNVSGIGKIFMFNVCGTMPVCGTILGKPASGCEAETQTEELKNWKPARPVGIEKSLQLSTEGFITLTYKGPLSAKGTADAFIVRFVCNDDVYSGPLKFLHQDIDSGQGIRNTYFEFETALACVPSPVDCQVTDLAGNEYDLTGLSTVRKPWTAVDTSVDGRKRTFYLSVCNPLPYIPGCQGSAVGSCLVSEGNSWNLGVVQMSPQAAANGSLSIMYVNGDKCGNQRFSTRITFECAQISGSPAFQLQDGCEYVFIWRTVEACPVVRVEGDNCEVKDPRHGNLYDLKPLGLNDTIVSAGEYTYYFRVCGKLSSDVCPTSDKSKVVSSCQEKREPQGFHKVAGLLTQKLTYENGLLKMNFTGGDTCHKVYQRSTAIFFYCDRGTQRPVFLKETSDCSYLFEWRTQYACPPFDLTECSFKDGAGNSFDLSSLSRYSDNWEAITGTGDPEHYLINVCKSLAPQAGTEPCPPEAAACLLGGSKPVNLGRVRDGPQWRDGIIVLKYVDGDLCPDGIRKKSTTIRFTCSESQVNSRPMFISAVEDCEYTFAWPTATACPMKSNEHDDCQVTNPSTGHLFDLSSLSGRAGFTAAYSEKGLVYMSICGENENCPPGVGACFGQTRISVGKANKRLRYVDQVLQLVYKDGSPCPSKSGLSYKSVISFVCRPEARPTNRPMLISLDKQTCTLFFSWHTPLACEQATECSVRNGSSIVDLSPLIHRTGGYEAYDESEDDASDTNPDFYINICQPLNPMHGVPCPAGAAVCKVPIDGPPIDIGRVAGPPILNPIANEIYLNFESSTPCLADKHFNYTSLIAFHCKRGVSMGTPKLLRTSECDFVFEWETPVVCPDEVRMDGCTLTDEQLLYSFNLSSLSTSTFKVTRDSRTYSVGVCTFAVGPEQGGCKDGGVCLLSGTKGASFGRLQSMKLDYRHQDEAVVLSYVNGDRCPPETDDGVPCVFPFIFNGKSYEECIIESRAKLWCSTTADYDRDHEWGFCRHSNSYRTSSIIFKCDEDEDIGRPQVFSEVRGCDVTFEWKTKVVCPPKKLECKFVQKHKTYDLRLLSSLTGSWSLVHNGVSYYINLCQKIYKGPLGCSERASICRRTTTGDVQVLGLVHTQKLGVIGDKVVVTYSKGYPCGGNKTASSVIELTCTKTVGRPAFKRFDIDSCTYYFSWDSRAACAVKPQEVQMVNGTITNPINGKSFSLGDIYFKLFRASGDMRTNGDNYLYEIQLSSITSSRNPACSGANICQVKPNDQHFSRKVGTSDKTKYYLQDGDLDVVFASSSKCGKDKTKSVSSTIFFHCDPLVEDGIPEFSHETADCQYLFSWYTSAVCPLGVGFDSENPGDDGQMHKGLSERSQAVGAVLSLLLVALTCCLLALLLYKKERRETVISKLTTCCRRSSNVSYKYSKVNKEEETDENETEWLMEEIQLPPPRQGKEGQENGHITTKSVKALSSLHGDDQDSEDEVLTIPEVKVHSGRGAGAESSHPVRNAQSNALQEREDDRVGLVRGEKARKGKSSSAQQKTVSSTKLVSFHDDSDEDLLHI
UniProt P01344, residues 25-91: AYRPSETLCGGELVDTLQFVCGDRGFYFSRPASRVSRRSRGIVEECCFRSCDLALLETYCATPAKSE

No constants are given. Whether binding was seen depends on the method and setting. Some results given as binding are weak or reduced against the parent protein; the word gives no strength.

This assay has as its target biotinylated, His-tagged recombinant wild-type CI-MPR domains 10-13 (1288FS) (Homo sapiens (Human)) (UniProt P11717). As to the kind of experiment: SPR (Biacore 3000): biotinylated wild-type CI-MPR Dom10-13 on an SA chip, I1572T mutant Dom10-13 flow cell subtracted.

On to “IGF-II (from UniProt P01344 25-91) (ligand)”, for which the binding result was “binds”.
